Results taken from patent US8329429B2, “Method of enhancing recombinant protein production” (Induce Biologics Inc., priority 2007, dated 2012).

Experiments:
[1] = dot blot assay for BMP-2 in conditioned medium
[2] = Quantikine hBMP-2 ELISA of conditioned medium from transfected cell lines; settings: hBMP-2 CHO stable transfectants; depends on seeding density, incubation time, medium volume

B1: S1-BMP-2: proBMP-2 with S1 furin site REKR replaced by linker TNGIEGRALDP (SEQ ID NO: 16) (protein)
chain: LVPELGRRKFAAASSGRPSSQPSDEVLSEFELRLLSMFGLKQRPTPSRDAVVPPYMLDLYRRHSGQPGSPAPDHRLERAASRANTVRSFHHEESLEELPETSGKTTRRFFFNLSSIPTEEFITSAELQVFREQMQDALGNNSSFHHRINIYEIIKPATANSKFPVTRLLDTRLVNQNASRWESFDVTPAVMRWTAQGHANHGFVVEVAHLEEKQGVSKRHVRISRSLHQDEHSWSQIRPLLVTFGHDGKGHPLHKTNGIEGRALDPQAKHKQRKRLKSSCKRHPLYVDFSDVGWNDWIVAPPGYHAFYCHGECPFPLADHLNSTNHAIVQTLVNSVNSKIPKACCVPTELSAISMLYLDENEKVVLKNYQDMVVEGCGCR
[1]; construct 2340, 293 cells
  BMP-2 Dot Blot: 500+
[1]; construct 2340, COS cells
  BMP-2 Dot Blot: 500+
[1]; construct 2341, 293 cells
  BMP-2 Dot Blot: 5000+
[1]; construct 2341, COS cells
  BMP-2 Dot Blot: 5000+

B2: hBMP-2: wild type human BMP-2 secreted by cells transfected with construct 2334 (SEQ ID NO: 2) (protein, listed as Homo sapiens)
chain: MVAGTRCLLALLLPQVLLGGAAGLVPELGRRKFAAASSGRPSSQPSDEVLSEFELRLLSMFGLKQRPTPSRDAVVPPYMLDLYRRHSGQPGSPAPDHRLERAASRANTVRSFHHEESLEELPETSGKTTRRFFFNLSSIPTEEFITSAELQVFREQMQDALGNNSSFHHRINIYEIIKPATANSKFPVTRLLDTRLVNQNASRWESFDVTPAVMRWTAQGHANHGFVVEVAHLEEKQGVSKRHVRISRSLHQDEHSWSQIRPLLVTFGHDGKGHPLHKREKRQAKHKQRKRLKSSCKRHPLYVDFSDVGWNDWIVAPPGYHAFYCHGECPFPLADHLNSTNHAIVQTLVNSVNSKIPKACCVPTELSAISMLYLDENEKVVLKNYQDMVVEGCGCR
[2]
  amount of mature hBMP-2 in the medium: 20 to 100 ng/mL
